From article PMC9256704
Results are given in words; binding and its absence hold for the method and conditions named. Binding seen in cells or lysates may run through a third protein. Here binding means that the protein was enriched with, or labelled near, the bait; the list need not be complete. Tags and fused reporters may be left off the sequences shown.

Chains of the proteins cited; added tags and fusions are not shown.
UniProt P14618: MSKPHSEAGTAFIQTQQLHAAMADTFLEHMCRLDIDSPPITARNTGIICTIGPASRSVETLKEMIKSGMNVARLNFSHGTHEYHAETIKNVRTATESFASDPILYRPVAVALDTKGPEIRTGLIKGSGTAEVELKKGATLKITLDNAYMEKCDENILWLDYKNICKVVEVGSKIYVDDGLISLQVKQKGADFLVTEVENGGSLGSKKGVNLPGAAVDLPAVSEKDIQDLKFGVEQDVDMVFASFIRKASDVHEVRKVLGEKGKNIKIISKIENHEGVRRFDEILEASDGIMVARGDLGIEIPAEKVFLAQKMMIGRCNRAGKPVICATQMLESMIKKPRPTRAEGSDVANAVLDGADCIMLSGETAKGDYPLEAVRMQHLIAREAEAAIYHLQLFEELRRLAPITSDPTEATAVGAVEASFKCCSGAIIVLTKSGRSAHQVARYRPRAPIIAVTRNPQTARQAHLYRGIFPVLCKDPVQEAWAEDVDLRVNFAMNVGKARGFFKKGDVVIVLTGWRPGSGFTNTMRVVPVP

Target: T1, GST-TRIB2-Full (UniProt Q92519)
T1 sequence: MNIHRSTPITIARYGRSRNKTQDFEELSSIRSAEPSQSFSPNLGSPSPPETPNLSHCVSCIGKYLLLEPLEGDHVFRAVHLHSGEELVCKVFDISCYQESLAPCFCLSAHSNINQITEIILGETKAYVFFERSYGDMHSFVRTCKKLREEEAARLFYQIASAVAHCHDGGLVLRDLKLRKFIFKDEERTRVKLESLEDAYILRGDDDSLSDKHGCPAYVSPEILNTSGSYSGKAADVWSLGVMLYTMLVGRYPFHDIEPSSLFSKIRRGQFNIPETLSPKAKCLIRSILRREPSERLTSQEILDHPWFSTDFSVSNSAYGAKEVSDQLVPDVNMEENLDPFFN
Assay: affinity purification with mass spectrometry; GST-TRIB2-full incubated with the lysis of lung cancer tissues; pulled-down proteins stained with Coomassie and analysed by Q Exactive LC-MS/MS; only the target purified

## PKM2 (M2 isoform of pyruvate kinase), endogenous (from UniProt P14618 1-531)
  binding: binds
